{
  "sequences": {"note": "By UniProt entry, the sequences of proteins in these tests, tags left out. Where a name states a change or a piece, a line headed by the entry shows the natural chain unless it says otherwise.", "UniProt P24555": "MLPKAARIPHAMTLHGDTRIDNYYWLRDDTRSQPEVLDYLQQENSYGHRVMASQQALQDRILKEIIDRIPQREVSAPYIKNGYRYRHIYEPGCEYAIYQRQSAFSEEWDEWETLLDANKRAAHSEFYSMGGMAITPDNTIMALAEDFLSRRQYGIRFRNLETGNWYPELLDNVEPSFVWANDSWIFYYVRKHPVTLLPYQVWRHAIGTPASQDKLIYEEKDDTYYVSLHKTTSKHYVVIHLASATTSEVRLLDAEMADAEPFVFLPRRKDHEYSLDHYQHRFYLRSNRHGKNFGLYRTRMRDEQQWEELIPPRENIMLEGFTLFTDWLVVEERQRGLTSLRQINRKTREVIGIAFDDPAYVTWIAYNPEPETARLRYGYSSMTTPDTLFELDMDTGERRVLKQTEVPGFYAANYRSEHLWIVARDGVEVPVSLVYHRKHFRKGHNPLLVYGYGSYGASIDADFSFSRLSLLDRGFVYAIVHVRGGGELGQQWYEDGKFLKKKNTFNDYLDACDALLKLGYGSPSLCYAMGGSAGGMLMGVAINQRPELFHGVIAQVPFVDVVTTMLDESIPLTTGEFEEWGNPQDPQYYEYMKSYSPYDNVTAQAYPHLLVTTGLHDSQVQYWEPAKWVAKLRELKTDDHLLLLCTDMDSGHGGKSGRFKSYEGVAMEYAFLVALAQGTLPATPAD", "UniProt P33230": "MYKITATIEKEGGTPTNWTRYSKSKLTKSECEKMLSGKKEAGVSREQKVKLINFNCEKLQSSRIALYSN", "UniProt P27296": "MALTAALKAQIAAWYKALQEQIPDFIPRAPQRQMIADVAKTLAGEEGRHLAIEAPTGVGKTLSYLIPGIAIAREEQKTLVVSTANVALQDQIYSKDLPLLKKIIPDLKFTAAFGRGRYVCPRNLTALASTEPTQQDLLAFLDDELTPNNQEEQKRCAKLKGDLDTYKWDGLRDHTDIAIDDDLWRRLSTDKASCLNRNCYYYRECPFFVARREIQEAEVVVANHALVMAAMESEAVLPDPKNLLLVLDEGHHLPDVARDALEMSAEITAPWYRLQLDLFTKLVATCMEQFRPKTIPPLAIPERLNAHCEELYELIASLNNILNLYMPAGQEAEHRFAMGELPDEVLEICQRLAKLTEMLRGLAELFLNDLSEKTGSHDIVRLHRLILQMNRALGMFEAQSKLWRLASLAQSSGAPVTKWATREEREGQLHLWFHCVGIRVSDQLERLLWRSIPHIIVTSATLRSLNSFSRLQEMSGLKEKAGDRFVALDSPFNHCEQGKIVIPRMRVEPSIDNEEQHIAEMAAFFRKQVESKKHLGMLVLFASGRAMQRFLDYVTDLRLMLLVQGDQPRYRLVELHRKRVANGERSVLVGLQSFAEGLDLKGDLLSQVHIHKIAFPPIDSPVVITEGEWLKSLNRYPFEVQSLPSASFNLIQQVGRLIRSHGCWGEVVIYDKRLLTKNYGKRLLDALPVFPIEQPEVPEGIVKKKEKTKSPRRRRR", "UniProt P25888": "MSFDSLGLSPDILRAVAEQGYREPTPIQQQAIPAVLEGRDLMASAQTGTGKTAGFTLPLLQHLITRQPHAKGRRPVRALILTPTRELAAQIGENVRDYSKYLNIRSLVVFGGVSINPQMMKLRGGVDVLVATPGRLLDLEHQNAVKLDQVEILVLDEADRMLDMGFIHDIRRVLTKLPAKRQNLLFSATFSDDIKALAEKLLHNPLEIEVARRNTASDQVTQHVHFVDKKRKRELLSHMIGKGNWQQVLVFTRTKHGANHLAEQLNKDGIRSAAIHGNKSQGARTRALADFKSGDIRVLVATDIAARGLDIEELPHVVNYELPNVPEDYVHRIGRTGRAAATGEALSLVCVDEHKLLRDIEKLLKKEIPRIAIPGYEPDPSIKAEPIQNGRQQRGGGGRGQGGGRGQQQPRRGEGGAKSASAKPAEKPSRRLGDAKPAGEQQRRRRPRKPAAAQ", "UniProt P30749": "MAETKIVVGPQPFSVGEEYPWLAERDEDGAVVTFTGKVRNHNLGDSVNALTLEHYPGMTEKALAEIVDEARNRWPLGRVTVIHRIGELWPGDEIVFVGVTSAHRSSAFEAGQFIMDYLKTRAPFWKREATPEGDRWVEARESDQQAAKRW", "UniProt P30855": "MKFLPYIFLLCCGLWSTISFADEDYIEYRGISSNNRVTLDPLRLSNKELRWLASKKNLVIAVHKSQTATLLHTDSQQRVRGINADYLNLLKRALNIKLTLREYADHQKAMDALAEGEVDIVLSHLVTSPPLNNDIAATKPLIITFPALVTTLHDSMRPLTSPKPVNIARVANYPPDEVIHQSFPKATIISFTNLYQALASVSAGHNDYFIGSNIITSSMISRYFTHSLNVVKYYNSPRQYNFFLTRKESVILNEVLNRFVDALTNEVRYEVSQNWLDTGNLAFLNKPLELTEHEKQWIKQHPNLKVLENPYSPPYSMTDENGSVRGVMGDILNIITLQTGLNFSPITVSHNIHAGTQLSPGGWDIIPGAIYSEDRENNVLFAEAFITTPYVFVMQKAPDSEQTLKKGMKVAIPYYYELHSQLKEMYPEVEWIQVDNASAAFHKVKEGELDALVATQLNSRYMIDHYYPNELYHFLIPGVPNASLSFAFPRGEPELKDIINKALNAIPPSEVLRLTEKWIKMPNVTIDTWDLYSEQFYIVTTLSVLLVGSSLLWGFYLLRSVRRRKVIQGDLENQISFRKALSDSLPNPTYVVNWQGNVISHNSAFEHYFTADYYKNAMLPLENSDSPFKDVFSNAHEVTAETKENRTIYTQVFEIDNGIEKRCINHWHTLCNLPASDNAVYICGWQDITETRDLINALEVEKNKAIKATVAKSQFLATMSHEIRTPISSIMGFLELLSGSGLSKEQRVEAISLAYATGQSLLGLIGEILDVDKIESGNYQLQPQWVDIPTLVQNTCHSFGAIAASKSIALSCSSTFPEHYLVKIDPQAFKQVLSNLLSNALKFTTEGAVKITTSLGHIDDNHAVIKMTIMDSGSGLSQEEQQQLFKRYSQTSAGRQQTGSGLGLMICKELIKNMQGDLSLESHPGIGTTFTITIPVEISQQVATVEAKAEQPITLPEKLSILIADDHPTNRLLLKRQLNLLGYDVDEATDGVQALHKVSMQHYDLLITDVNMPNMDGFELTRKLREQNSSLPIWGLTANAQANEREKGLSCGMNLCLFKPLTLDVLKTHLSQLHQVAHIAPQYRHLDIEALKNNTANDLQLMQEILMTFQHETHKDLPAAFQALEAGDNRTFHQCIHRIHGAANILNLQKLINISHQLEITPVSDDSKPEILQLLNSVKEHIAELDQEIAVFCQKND", "UniProt P33358": "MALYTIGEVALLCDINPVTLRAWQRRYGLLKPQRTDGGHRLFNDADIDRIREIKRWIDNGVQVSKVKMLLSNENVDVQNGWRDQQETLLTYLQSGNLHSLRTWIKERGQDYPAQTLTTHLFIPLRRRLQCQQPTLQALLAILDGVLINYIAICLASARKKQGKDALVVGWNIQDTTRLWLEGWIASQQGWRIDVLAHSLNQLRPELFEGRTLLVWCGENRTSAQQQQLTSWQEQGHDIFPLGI", "UniProt P31433": "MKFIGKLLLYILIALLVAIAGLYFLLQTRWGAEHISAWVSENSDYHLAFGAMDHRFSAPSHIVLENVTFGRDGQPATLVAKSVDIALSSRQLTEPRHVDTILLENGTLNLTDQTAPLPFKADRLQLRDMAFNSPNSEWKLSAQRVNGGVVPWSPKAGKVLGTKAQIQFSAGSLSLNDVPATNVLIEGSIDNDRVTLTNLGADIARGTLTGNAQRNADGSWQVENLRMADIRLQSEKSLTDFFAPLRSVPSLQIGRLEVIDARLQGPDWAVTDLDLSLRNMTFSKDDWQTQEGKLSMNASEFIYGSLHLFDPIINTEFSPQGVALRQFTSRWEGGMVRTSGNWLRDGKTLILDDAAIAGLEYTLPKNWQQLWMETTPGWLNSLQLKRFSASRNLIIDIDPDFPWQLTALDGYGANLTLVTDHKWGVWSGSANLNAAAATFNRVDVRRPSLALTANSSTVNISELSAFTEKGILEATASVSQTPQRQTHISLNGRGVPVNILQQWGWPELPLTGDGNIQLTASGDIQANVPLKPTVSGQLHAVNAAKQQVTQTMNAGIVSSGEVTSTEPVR", "UniProt P28904": "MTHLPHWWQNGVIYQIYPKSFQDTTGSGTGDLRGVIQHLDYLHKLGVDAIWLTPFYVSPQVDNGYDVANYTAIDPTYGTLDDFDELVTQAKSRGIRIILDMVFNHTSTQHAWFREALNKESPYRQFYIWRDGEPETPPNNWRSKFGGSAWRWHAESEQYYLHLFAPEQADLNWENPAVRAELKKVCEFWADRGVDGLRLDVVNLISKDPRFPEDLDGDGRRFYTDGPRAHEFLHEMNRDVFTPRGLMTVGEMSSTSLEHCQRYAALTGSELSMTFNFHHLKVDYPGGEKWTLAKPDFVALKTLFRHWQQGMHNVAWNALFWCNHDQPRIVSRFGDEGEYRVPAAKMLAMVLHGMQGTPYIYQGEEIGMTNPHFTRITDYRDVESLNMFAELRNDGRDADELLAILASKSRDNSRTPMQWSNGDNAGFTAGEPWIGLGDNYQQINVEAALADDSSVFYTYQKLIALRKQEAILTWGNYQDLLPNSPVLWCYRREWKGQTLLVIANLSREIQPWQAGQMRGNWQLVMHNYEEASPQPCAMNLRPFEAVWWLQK", "UniProt P32134": "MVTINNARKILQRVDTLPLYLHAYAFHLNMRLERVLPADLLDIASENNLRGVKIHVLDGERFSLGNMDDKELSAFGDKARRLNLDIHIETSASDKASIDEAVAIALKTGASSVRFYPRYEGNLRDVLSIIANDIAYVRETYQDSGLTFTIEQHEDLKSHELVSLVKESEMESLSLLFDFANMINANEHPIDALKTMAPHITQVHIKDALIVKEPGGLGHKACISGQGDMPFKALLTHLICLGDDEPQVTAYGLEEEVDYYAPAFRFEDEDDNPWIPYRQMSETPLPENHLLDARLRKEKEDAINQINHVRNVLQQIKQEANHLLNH", "UniProt P31060": "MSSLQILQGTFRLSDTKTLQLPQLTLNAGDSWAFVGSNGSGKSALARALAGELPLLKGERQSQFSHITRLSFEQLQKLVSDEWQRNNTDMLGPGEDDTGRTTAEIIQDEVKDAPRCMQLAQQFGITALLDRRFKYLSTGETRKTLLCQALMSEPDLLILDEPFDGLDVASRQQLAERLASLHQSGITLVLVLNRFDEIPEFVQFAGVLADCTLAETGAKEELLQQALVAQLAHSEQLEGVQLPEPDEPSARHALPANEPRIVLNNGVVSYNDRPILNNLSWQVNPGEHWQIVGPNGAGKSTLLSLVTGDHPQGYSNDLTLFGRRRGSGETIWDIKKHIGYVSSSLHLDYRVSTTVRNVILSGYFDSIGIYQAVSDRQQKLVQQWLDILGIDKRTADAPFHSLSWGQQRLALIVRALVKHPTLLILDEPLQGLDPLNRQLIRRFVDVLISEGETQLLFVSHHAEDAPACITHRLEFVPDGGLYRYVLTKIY", "UniProt P25718": "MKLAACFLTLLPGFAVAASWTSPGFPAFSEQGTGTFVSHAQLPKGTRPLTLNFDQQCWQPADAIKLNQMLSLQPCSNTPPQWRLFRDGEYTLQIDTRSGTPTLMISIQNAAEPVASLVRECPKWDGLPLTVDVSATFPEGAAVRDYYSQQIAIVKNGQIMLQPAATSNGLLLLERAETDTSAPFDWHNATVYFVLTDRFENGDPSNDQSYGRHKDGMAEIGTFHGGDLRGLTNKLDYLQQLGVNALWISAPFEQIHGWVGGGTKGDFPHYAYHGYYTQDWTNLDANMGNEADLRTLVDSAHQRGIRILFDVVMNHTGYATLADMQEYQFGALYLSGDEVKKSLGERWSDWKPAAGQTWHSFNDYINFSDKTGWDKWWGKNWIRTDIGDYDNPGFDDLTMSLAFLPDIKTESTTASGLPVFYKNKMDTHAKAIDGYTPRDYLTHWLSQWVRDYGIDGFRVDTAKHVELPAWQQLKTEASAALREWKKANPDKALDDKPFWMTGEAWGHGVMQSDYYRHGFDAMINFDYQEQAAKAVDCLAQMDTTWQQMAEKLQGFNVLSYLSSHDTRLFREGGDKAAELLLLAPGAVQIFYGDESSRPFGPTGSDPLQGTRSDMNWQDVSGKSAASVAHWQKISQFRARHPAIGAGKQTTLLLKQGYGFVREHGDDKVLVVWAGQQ", "UniProt P28915": "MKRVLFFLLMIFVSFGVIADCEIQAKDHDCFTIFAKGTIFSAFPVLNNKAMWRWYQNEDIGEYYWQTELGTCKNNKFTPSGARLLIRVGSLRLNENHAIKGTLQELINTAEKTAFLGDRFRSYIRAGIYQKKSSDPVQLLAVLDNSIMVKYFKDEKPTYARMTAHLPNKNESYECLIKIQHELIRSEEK", "UniProt P32160": "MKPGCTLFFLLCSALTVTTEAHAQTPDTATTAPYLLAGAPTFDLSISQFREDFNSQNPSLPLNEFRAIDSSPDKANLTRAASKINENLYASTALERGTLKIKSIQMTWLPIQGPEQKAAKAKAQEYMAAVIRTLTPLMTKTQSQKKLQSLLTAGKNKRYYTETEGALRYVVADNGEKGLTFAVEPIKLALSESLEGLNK"},
  "source": "the supplement of paper PMC12819154",
  "about": "“High-throughput peptide-centric local stability assay extends protein–ligand identification to membrane proteins, tissues and bacteria” (Nature Structural & Molecular Biology, 2025)",
  "note": "The list shows a part of the results. Most values lie at the level of the controls, where differences are scatter.",
  "data": [
    {"compound": "CC1(C)S[C@@H]2[C@H](NC(=O)[C@H](N)c3ccccc3)C(=O)N2[C@H]1C(=O)O [ampicillin]", "assay": "log2 fold change of tryptic peptide abundance, ligand vs vehicle (limited proteolysis) (log2 ratio); higher = more trypsin-susceptible (destabilized)", "details": "ligand concentration: 10 uM; sample: E. coli crude lysate", "values": [
      {"target": "UniProt P27129 (peptide sequence: WAIYPSVK, peptide start residue: 275)", "log2 fold change": -0.438},
      {"target": "UniProt P31825 (peptide sequence: QFFVAHDR, peptide start residue: 17)", "log2 fold change": -0.192},
      {"target": "UniProt P24240 (peptide sequence: YGFVFVDRDDAGNGTLTR, peptide start residue: 436)", "log2 fold change": 0.187},
      {"target": "UniProt P27128 (peptide sequence: KITHPDQDVLNMLLADK, peptide start residue: 215)", "log2 fold change": 1.19},
      {"target": "UniProt P28630 (peptide sequence: LSLLWPDGKLTLPR, peptide start residue: 188)", "log2 fold change": -0.467},
      {"target": "UniProt P32153 (peptide sequence: LGQGPGLMLFDKR, peptide start residue: 247)", "log2 fold change": 0.66},
      {"target": "UniProt P24555 (peptide sequence: VMASQQALQDR, peptide start residue: 50)", "log2 fold change": -0.794},
      {"target": "UniProt P30863 (peptide sequence: KNLESNLK, peptide start residue: 226)", "log2 fold change": 0.0662},
      {"target": "UniProt P33230 (peptide sequence: LINFNCEK, peptide start residue: 51)", "log2 fold change": -0.122},
      {"target": "UniProt P27296 (peptide sequence: LMLLVQGDQPR, peptide start residue: 559)", "log2 fold change": 0.242},
      {"target": "UniProt P24554 (peptide sequence: KAPEGMQIFGVK, peptide start residue: 437)", "log2 fold change": -0.181},
      {"target": "UniProt P27294 (peptide sequence: RNGMSGVQCVER, peptide start residue: 28)", "log2 fold change": 0.756},
      {"target": "UniProt P33030 (peptide sequence: KGLAALSLPEHQR, peptide start residue: 215)", "log2 fold change": 0.214},
      {"target": "UniProt P25888 (peptide sequence: ELAAQIGENVRDYSK, peptide start residue: 86)", "log2 fold change": -0.558},
      {"target": "UniProt P31475 (peptide sequence: TAVREAVKTLTAK, peptide start residue: 52)", "log2 fold change": -0.392},
      {"target": "UniProt P30749 (peptide sequence: ESDQQAAK, peptide start residue: 141)", "log2 fold change": -0.233},
      {"target": "UniProt P33643 (peptide sequence: THMAVHPMGKPAVTHYR, peptide start residue: 197)", "log2 fold change": 0.423},
      {"target": "UniProt P27127 (peptide sequence: LHVLGDGSDFEK, peptide start residue: 211)", "log2 fold change": -0.196},
      {"target": "UniProt P30855 (peptide sequence: ITTSLGHIDDNHAVIK, peptide start residue: 851)", "log2 fold change": 0.914},
      {"target": "UniProt P33358 (peptide sequence: LFNDADIDR, peptide start residue: 41)", "log2 fold change": -0.239},
      {"target": "UniProt P31433 (peptide sequence: VNGGVVPWSPK, peptide start residue: 145)", "log2 fold change": 0.199},
      {"target": "UniProt P27240 (peptide sequence: IIDLSGKR, peptide start residue: 175)", "log2 fold change": -0.17},
      {"target": "UniProt P31548 (peptide sequence: QMGIDNLMAR, peptide start residue: 116)", "log2 fold change": -0.47},
      {"target": "UniProt P33360 (peptide sequence: TIVLVTHDIDEALR, peptide start residue: 187)", "log2 fold change": 0.201},
      {"target": "UniProt P25526 (peptide sequence: LMTLEQGKPLAEAK, peptide start residue: 93)", "log2 fold change": -0.144},
      {"target": "UniProt P32139 (peptide sequence: YQGQEYQLPINEHSSK, peptide start residue: 81)", "log2 fold change": -0.278},
      {"target": "UniProt P28904 (peptide sequence: GQTLLVIANLSR, peptide start residue: 496)", "log2 fold change": 0.283},
      {"target": "UniProt P25553 (peptide sequence: ERASEISALIVEEGGK, peptide start residue: 81)", "log2 fold change": -0.43},
      {"target": "UniProt P32134 (peptide sequence: QEANHLLNH, peptide start residue: 318)", "log2 fold change": 0.729},
      {"target": "UniProt P31060 (peptide sequence: RGSGETIWDIK, peptide start residue: 325)", "log2 fold change": -0.42},
      {"target": "UniProt P29131 (peptide sequence: AADAPKPTAEKK, peptide start residue: 232)", "log2 fold change": 0.491},
      {"target": "UniProt P25718 (peptide sequence: HKDGMAEIGTFHGGDLR, peptide start residue: 213)", "log2 fold change": -0.19},
      {"target": "UniProt P28915 (peptide sequence: LNENHAIK, peptide start residue: 93)", "log2 fold change": -0.43},
      {"target": "UniProt P32160 (peptide sequence: AIDSSPDKANLTR, peptide start residue: 67)", "log2 fold change": -0.127}
    ]}
  ]
}
